Data from patent publication US20200071382A1 (published 2020).
No constants are given. Whether binding was seen depends on the method and setting. Some binding calls cover weakened binding; strength is not graded here.

Amino acid sequences for entries named in this document (tags omitted). A change or cut given only in a name is not applied to a line headed by its entry.
UniProt P37023: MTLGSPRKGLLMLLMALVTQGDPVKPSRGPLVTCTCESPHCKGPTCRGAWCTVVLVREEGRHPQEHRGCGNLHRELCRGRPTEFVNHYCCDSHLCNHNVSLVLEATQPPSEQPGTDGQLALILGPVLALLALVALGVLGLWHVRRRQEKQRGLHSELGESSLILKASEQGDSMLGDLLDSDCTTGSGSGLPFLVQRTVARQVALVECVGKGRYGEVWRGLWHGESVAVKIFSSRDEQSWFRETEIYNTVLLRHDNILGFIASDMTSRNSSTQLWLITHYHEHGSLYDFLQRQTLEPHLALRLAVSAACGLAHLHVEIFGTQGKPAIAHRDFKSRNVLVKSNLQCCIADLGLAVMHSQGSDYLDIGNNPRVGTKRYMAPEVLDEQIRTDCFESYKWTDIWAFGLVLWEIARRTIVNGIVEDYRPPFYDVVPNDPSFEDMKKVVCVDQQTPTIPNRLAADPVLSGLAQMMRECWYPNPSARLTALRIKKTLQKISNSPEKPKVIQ

Tests used:
BMP10 = molecular target: T1, BMP10 (UniProt O95393); experiment: Biacore SPR; complex captured by anti-Fc antibody, ligand injected
T1 sequence (looked up): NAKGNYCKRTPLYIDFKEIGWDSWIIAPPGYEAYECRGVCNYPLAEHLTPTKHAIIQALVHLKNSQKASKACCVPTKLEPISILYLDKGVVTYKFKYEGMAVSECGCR

BMP9 = molecular target: T2, BMP9 (UniProt Q9UK05 320-429); experiment: as above
T2 construct: Ligand injected over the captured receptor protein
T2 sequence (looked up): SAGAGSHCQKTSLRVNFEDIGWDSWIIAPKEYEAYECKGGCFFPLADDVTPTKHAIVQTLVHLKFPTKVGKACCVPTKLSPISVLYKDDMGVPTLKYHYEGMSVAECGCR

binding (BMP10): binds
binding (BMP9): binds
Substance: ALK1-Fc:ALK1-Fc homodimer (from UniProt P37023 22-118) (Fc fusion)
